These results are taken from US8894993B2, “Mitochondria-targeted antioxidants” (Natreon Inc., priority 2006, dated 2014).

Data set [1] is described as follows: DBPs isolated from animal liver mitochondria (goat). Particulars: endogenous level.
A short description of data set [2]: DBPs isolated from animal liver mitochondria (chicken). The following applies: endogenous level.
The nature of data set [3]: DBP products in mice liver mitochondria before and after DBPs treatment, HPTLC. In kind it is in vivo, Swiss Albino mice. Particulars: control mice. How it is done: Mitochondria were isolated from heart and liver of chicken, goat and mice following a published procedure (Liu Y, Deng F, Zhao R and Qu S, Chemosphere, 40(8):851-854, 2000). […] The tissue was cut into small pieces, homogenized and centrifuged at 900 g for one minute. The supernatant was again centrifuged twice, for 20 minutes each time at 900 g. The sediment at each step was discarded. The clear supernatant was centrifuged twice at 12,000 g, 20 minutes each time, to form pellets of a mitochondria-enriched fraction. The fraction was divided into two parts. One part was resuspended in a measured volume of distilled water and sonicated (10 min×2). […] The two extracts were subjected to comprehensive HPTLC and HPLC analyses for detection and quantitation of DBPs and their equivalents. […] One hour after administration the animals were sacrificed and mitochondria from liver were isolated and analyzed as described for Example 6. […] Mobile Phase—Chloroform:Methanol 90:10 Sample application—CAMAG LINOMAT 5 (Automated applicator) Detection—240 nm (CAMAG TLC SCANNER 3) 3-OH-DBP and 3,8-(OH)2-DBP (and their conjugates) were detected in mitochondria of control mice by HPTLC. Administration of DBPs to the animals increased the amount of DBPs and its products in mitochondria as detected by using authentic markers of the two DBPs (Table 2).

For data set [4] the following is noted: cited from earlier work.

Like-named read-outs stand apart in the source and are kept apart here.

For the compound `O=c1oc2cc(O)ccc2c2ccccc12` [3-OH-DBP, 3-hydroxydibenzo-α-pyrone], the “amount in mitochondria enriched fraction isolated from liver” value in data set [1] is on record as 80.00 ng/mg mitochondria enriched fraction; in data set [2], 0.78 ng/mg mitochondria enriched fraction.
As for `O=c1oc2cc(O)ccc2c2cc(-c3cc4c(cc3O)c(=O)oc3cc(O)ccc34)c(O)cc12` [3,8-(OH)2-DBP-dimer, 3,3′,8,8′-tetrahydroxy-9,9′-bis-dibenzo-α-pyrone], in data set [3], the “Amount in mitochondria before DBP treatment” value came to 22.9 nmol/gm wet wt.
Take `O=c1oc2cc(O)ccc2c2ccc(O)cc12` [3,8-(OH)2-DBP, 3,8-dihydroxydibenzo-α-pyrone]: the “amount in mitochondria enriched fraction isolated from liver” value is reported as 10.00 ng/mg mitochondria enriched fraction in data set [1] and 0.67 ng/mg mitochondria enriched fraction in data set [2]. In addition, the “Amount in mitochondria before DBP treatment” value in data set [3] is given as 0.5 nmol/gm wet wt.
In the case of `COC1=C(OC)C(=O)C(C/C=C(\C)CC/C=C(\C)CC/C=C(\C)CC/C=C(\C)CC/C=C(\C)CC/C=C(\C)CC/C=C(\C)CC/C=C(\C)CC/C=C(\C)CCC=C(C)C)=C(C)C1=O` [CoQ10], the Plasma level in data set [4] (normal human volunteers 20-40 years, n = 5) is 1726.8 ± 215.75 µg/L; in data set [4] (normal human volunteers 41-65 years, n = 40), 897.9 ± 302 µg/L.
